The record followed here is PubChem BioAssay AID330 (DTP/NCI, 2004).

The subject of this assay is P388 leukemia ip, CD2F1 mice, survival T/C. As to the kind of experiment: NCI In Vivo Anticancer Drug Screen. Data for tumor model P388 Leukemia (intraperitoneal) in CD2F1 (CDF1) mice. To be noted: T/C endpoint: median survival time, higher T/C = longer survival.
Setting [1] is: dose: 50.0 mg/kg/injection, schedule: Q01DX005 (ip), vehicle: saline with Tween-80.
Where [2] appears, read: dose: 200.0 mg/kg/injection, schedule: Q01DX005 (ip), vehicle: saline with Tween-80.
[3] abbreviates: dose: 100.0 mg/kg/injection, schedule: Q04DX003 (ip), vehicle: saline with Tween-80.
Where [4] appears, read: dose: 200.0 mg/kg/injection, schedule: Q04DX003 (ip), vehicle: saline with Tween-80.
Setting [5] is: dose: 400.0 mg/kg/injection, schedule: Q04DX003 (ip), vehicle: saline with Tween-80.
[6] abbreviates: dose: 100.0 mg/kg/injection, schedule: Q01DX009 (ip), vehicle: saline with Tween-80.
Setting [7] is: dose: 200.0 mg/kg/injection, schedule: Q01DX009 (ip), vehicle: saline with Tween-80.
[8] abbreviates: dose: 200.0 mg/kg/injection, schedule: Q01DX009 (ip), vehicle: Klucel (hydroxypropylcellulose) (HPC).
[9] abbreviates: dose: 400.0 mg/kg/injection, schedule: Q01DX009 (ip), vehicle: saline with Tween-80.
The mark [10] stands for this setting: dose: 200.0 mg/kg/injection, schedule: Q01DX005 (ip), vehicle: Klucel (hydroxypropylcellulose) (HPC).
The mark [11] stands for this setting: dose: 50.0 mg/kg/injection, schedule: Q01DX009 (ip), vehicle: Klucel (hydroxypropylcellulose) (HPC).
[12] abbreviates: dose: 100.0 mg/kg/injection, schedule: Q01DX009 (ip), vehicle: Klucel (hydroxypropylcellulose) (HPC).
Where [13] appears, read: dose: 50.0 mg/kg/injection, schedule: Q01DX009 (ip), vehicle: saline.
[14] abbreviates: dose: 50.0 mg/kg/injection, schedule: Q01DX009 (ip), vehicle: saline with Tween-80.

The list shows only some results of the screen, not a fair sample: it is rich in T/C values a quarter to a half above the control, in often repeated tests (any T/C) and in doses without a T/C. Other doses and runs of a compound stand elsewhere. T/C gives the treated animals as a percentage of the vehicle group. Some doses have a count of surviving animals in place of a T/C: the source files T/C as zero there, which appears to mark a toxic dose or a test without result, not a measured value. Some doses without a T/C left all or most animals alive at the check, yet need not have been tolerated: survival well below the control is almost never listed, so the zero probably covers shortened survival too. Counts of survivors are from the toxicity check (mostly the fifth day) where no day follows; animals may have died later. Schedules are NCI's codes, read here as Q, the interval in days (D) or hours (H), X, the number of doses. Some entries hold several experiments; the results are listed from low to high. Where survival is the endpoint, this PubChem deposit counts one and a half times the control or more as active, and values a quarter to a half above the control carry no call in these data; other NCI protocols may use other cut-offs. Some T/C values are followed by the survivors on the day toxicity was checked, most often the fifth; where none is given, no animal had died by that day.

With `CC[P+](CC)(c1ccccc1)c1ccccc1`, the survivor count is on record as 0 of 6 under setting [1]; 0 of 6 (dose: 100.0 mg/kg/injection, schedule: Q01DX005 (ip), vehicle: saline with Tween-80); 0 of 6 under setting [2].

Take `NC(CC(=O)CCl)C(=O)O` (configuration not stated): the T/C (dose: 6.25 mg/kg/injection, schedule: Q04DX003 (ip), vehicle: saline) is 149 % of control; the T/C (dose: 12.5 mg/kg/injection, schedule: Q04DX003 (ip), vehicle: saline, evaluated on day 5) was 142 % of control; the T/C (dose: 12.5 mg/kg/injection, schedule: Q04DX003 (ip), vehicle: saline, evaluated on day 30) was 142 % of control. For the same molecule, the survivor count is, setting by setting: (dose: 50.0 mg/kg/injection, schedule: Q04DX003 (ip), vehicle: saline) 3 of 6; under setting [3], 1 of 6; under setting [4], 0 of 6; under setting [5], 0 of 6.

Turning to `CCCCCCCCCCC[N+](C)([O-])CCCCCC[N+](C)([O-])CCCCCCCCCCC` (configuration not stated), the survivor count reads like this: under setting [6], 2 of 6; under setting [7], 0 of 6.

`Cc1cccc(/N=C/c2ccccc2O)n1`: the survivor count under setting [8] is listed as 1 of 6.

Consider `COCCCNC1=C(C#N)C(=O)NC(c2cccs2)S1` (configuration not stated), for which the T/C was 128 % of control under setting [7] and 126 % of control [5 of 6 alive] under setting [9].

`O=C(CC(Br)C(=O)c1ccccc1)c1ccccc1` (configuration not stated): the T/C under setting [3] is 136 % of control, the T/C under setting [4] was 136 % of control and the T/C under setting [5] is 136 % of control.

With `CC1C(=O)C=C(c2ccccc2)C1(O)c1ccccc1` (configuration not stated), the survivor count (dose: 400.0 mg/kg/injection, schedule: Q01DX001 (ip), vehicle: saline with Tween-80) was 4 of 6.

As for `Nc1cccc2ccccc12`, the survivor count was 0 of 6 under setting [4] and 0 of 6 under setting [5].

For the molecule `Cc1cc(N2CCCCC2)cc(=O)o1`, under setting [8], the survivor count was 0 of 6.

On to `CC1=NCCc2cc3c(cc21)OCO3`, for which the survivor count (dose: 100.0 mg/kg/injection, schedule: Q01DX001 (ip), vehicle: saline + alcohol) was 0 of 6.

Take `N#CN.[Pb]`: the T/C under setting [10] was 126 % of control.

Take `C=C1C2CCC3(CCC4C5(C)CCCC4(C=[N+](CCO)C5)C3C2)C1O` (configuration not stated): the survivor count is listed as 0 of 6 under setting [11] and 0 of 6 under setting [12].

For the molecule `O=[N+]([O-])c1cc([N+](=O)[O-])c(N2CC2)cc1C1=NCCO1`, the survivor count under setting [8] was 3 of 6.

For `S=c1[nH][nH]c(=S)s1`, the survivor count under setting [12] was 5 of 6 and the survivor count under setting [8] was 3 of 6.

For the molecule `N#C/C(=N\Nc1ccccc1)C(N)=S`, the survivor count by setting is: (dose: 100.0 mg/kg/injection, schedule: Q01DX009 (ip), vehicle: other) 0 of 6; (dose: 200.0 mg/kg/injection, schedule: Q01DX009 (ip), vehicle: other) 1 of 6.

Take `C/C(C#N)=C1/Nc2ccccc2NC1=O`: the survivor count (dose: 100.0 mg/kg/injection, schedule: Q01DX009 (ip), vehicle: distilled water + Tween-80 + alcohol) is 6 of 6.

Turning to `O=C1CCC(=O)N1CO`, the T/C was 142 % of control (dose: 150.0 mg/kg/injection, schedule: Q01DX009 (ip), vehicle: saline with Tween-80) and 145 % of control (dose: 300.0 mg/kg/injection, schedule: Q01DX009 (ip), vehicle: saline with Tween-80).

As to `CC1CN1P(=O)(N1CC=CCC1)N1CC1C` (configuration not stated), the T/C was 145 % of control (dose: 22.0 mg/kg/injection, schedule: Q01DX009 (ip), vehicle: saline) and 136 % of control under setting [13].

Turning to `N#CC1SC(C#N)C(c2ccc(Cl)cc2)OC1c1ccc(Cl)cc1` (configuration not stated), the survivor count under setting [1] was 6 of 6.

In the case of `Cc1cccnc1N`, the survivor count under setting [13] was 0 of 6; the survivor count (dose: 100.0 mg/kg/injection, schedule: Q01DX009 (ip), vehicle: saline) is recorded as 0 of 6; the survivor count (dose: 200.0 mg/kg/injection, schedule: Q01DX009 (ip), vehicle: saline) is on record as 0 of 6.

As to `NC1CCCCCC1`, for the setting “dose: 200.0 mg/kg/injection, schedule: Q01DX005 (ip), vehicle: saline”, the survivor count was 0 of 5.

On to `Nc1ccccc1SSc1ccccc1C(=O)O`, for which the survivor count under setting [10] is 0 of 5.

For the molecule `COc1cc(OC)c(NC(=O)Nc2cc(Cl)ccc2Cl)cc1Cl`, the survivor count under setting [7] was 6 of 6.

In the case of `NC(=S)c1cc(Cl)cc(Cl)c1N`, the survivor count is recorded as 1 of 6 (dose: 60.0 mg/kg/injection, schedule: Q01DX005 (ip), vehicle: Klucel (hydroxypropylcellulose) (HPC)); 0 of 6 (dose: 120.0 mg/kg/injection, schedule: Q01DX005 (ip), vehicle: Klucel (hydroxypropylcellulose) (HPC)); 0 of 6 (dose: 240.0 mg/kg/injection, schedule: Q01DX005 (ip), vehicle: Klucel (hydroxypropylcellulose) (HPC)).

For `COP(=S)(OC)SCSc1ccc(Cl)cc1`, the survivor count runs as follows: under setting [14], 1 of 6; under setting [6], 0 of 6; under setting [7], 0 of 6.

Turning to `C/C=C\C(C)=C/C(C)C(=O)CC(O)CC1CC(=O)NC(=O)C1` (configuration not stated), the survivor count reads like this: (dose: 50.0 mg/kg/injection, schedule: Q01DX009 (ip), vehicle: DMSO) 4 of 6; (dose: 100.0 mg/kg/injection, schedule: Q01DX009 (ip), vehicle: DMSO) 4 of 6; (dose: 200.0 mg/kg/injection, schedule: Q01DX009 (ip), vehicle: DMSO) 0 of 6; (dose: 400.0 mg/kg/injection, schedule: Q01DX009 (ip), vehicle: DMSO) 0 of 6.

In the case of `Cc1cc(C)c(OC2=C(c3c(C)cc(C)cc3C)C(=O)c3ccccc32)c(C)c1`, under setting [9], the survivor count is reported as 6 of 6.

As to `O=C(O)Cc1nn[nH]n1`, under “dose: 400.0 mg/kg/injection, schedule: Q04DX003 (ip), vehicle: Klucel (hydroxypropylcellulose) (HPC)”, the survivor count is recorded as 6 of 6.

As for `CC(NC(=O)C(N)Cc1ccc(Cl)cc1)P(=O)(O)O` (configuration not stated), the survivor count was 2 of 6 (dose: 100.0 mg/kg/injection, schedule: Q04DX002 (ip), vehicle: saline with Tween-80); 1 of 6 (dose: 200.0 mg/kg/injection, schedule: Q04DX002 (ip), vehicle: saline with Tween-80); 0 of 6 (dose: 400.0 mg/kg/injection, schedule: Q04DX002 (ip), vehicle: saline with Tween-80).

Consider `COc1cc(O)c2c(O)c3c(c4c2c1[C@]1(C4)C(C)=CCCC1(C)C)[C@H](O)[C@@]1(O)CC(=O)C(C(N)=O)=C(O)[C@@]1(O)C3=O`, for which the T/C reads like this: (dose: 6.0 mg/kg/injection, schedule: Q01DX009 (ip), vehicle: saline with Tween-80) 128 % of control; under setting [11], 131 % of control; under setting [12], 127 % of control; under setting [8], 136 % of control. Besides, the survivor count by setting is: (dose: 24.0 mg/kg/injection, schedule: Q01DX009 (ip), vehicle: saline with Tween-80) 4 of 6; (dose: 48.0 mg/kg/injection, schedule: Q01DX009 (ip), vehicle: saline with Tween-80) 3 of 6; under setting [12], 6 of 6; under setting [8], 0 of 6.

Turning to `O=C1OC(c2ccccc2)(c2ccccc2)CC1CC(O)(c1ccccc1)c1ccccc1` (configuration not stated), the survivor count under setting [2] is 6 of 6.

As for `S=C(NC12CC3CC(CC(C3)C1)C2)[NH][Sn]([c]1ccccc1)([c]1ccccc1)[c]1ccccc1`, the survivor count (dose: 25.0 mg/kg/injection, schedule: Q01DX009 (ip), vehicle: saline with Tween-80) is 2 of 6 and the survivor count under setting [14] is 0 of 6.

As to `C1=CCOCOC1`, the T/C is, setting by setting: (dose: 200.0 mg/kg/injection, schedule: Q01DX009 (ip), vehicle: saline with Tween-80, evaluated on day 20) 136 % of control [5 of 6 alive]; (dose: 200.0 mg/kg/injection, schedule: Q01DX009 (ip), vehicle: saline with Tween-80, evaluated on day 30) 133 % of control. Further, the survivor count under setting [9] is 0 of 6 and 1 of 6.
